Experimental data as given in PubChem BioAssay AID248 (DTP/NCI, 2004).
The list shows only some results of the screen, not a fair sample: it is rich in T/C values a quarter to a half above the control, in often repeated tests (any T/C) and in doses without a T/C. Further doses and runs are listed elsewhere. T/C gives the treated animals as a percentage of the vehicle group. Some doses have a count of surviving animals in place of a T/C: the source files T/C as zero there, which appears to mark a toxic dose or a test without result, not a measured value. Some doses without a T/C left all or most animals alive at the check, yet need not have been tolerated: survival well below the control is almost never listed, so the zero probably covers shortened survival too. Counts of survivors are from the toxicity check (mostly the fifth day) where no day follows; animals may have died later. Schedules are NCI's codes, read here as Q, the interval in days (D) or hours (H), X, the number of doses. Some schedules carry Z or #; the key to these is not given. For survival time, this PubChem deposit counts one and a half times the control or more as active, and values a quarter to a half above the control carry no call in these data; other NCI protocols may use other cut-offs. Some doses were run more than once; their values stand side by side, smallest first. Some T/C values carry the count of animals alive at the toxicity check (mostly the fifth day); where none is given, no animal had died by that day.

Test system: L1210 leukemia ip in BDF1 mice, survival T/C
Assay: NCI In Vivo Anticancer Drug Screen. Data for tumor model L1210 Leukemia (intraperitoneal) in B6D2F1 (BDF1) mice
Conditions: higher T/C = longer survival
[1] = T/C endpoint: mean survival time, dose: 400.0 mg/kg/injection, schedule: Q04DX003 (ip), vehicle: gum acacia
[2] = T/C endpoint: mean survival time, dose: 300.0 mg/kg/injection, schedule: Q01DX001 (ip), vehicle: saline
[3] = T/C endpoint: mean survival time, dose: 400.0 mg/kg/injection, schedule: Q04DX003 (ip), vehicle: Klucel (hydroxypropylcellulose) (HPC)
[4] = T/C endpoint: mean survival time, dose: 400.0 mg/kg/injection, schedule: Q01DX009 (ip), vehicle: saline
[5] = T/C endpoint: mean survival time, dose: 150.0 mg/kg/injection, schedule: Q01DX001 (ip), vehicle: saline
[6] = T/C endpoint: mean survival time, dose: 400.0 mg/kg/injection, schedule: Q01DX001 (ip), vehicle: saline
[7] = T/C endpoint: mean survival time, dose: 200.0 mg/kg/injection, schedule: Q01DX009 (ip), vehicle: saline
[8] = T/C endpoint: mean survival time, dose: 200.0 mg/kg/injection, schedule: Q04DX003 (ip), vehicle: Klucel (hydroxypropylcellulose) (HPC)
[9] = T/C endpoint: mean survival time, dose: 6.25 mg/kg/injection, schedule: Q01DX009 (ip), vehicle: saline
[10] = T/C endpoint: mean survival time, dose: 100.0 mg/kg/injection, schedule: Q01DX001 (ip), vehicle: saline
[11] = T/C endpoint: mean survival time, dose: 200.0 mg/kg/injection, schedule: Q01DX001 (ip), vehicle: saline
[12] = T/C endpoint: mean survival time, dose: 400.0 mg/kg/injection, schedule: Q01DX009 (ip), vehicle: saline with Tween-80
[13] = T/C endpoint: mean survival time, dose: 400.0 mg/kg/injection, schedule: Q04DX003 (ip), vehicle: saline with Tween-80
[14] = T/C endpoint: mean survival time, dose: 100.0 mg/kg/injection, schedule: Q04DX003 (ip), vehicle: saline with Tween-80
[15] = T/C endpoint: mean survival time, dose: 200.0 mg/kg/injection, schedule: Q04DX003 (ip), vehicle: saline with Tween-80

For `COC(=O)c1ccc(=O)oc1`, the survivor count [1] was 0 of 6.

With `O=C1C2CCC1C(N1CCCC1)CC2` (stereo not given) the survivor count [2] was 0 of 6.

With `Cc1cc(Cc2cccc[n+]2[O-])c2ccccc2n1` the survivor count [3] was 0 of 6.

With `C=C1C(=O)OC2C1CCC(C)C1C=CC(=O)C12C` (stereo not given) the survivor count [4] was 4 of 6.

`CCCC(C(=O)OCCN1CCCC12CCCCC2)C1CCCC1` (stereo not given) was tested, and the survivor count (T/C endpoint: mean survival time, dose: 45.0 mg/kg/injection, schedule: Q01DX Z (ip), vehicle: methylcellulose (MC)) was 6 of 6.

For `C[n+]1ccccc1/C=C/c1ccc(O)c2ccccc12`, the survivor count [5] was 3 of 6 and the survivor count [2] was 0 of 6.

`O=[N+]([O-])c1cc(Cl)c(Cl)cc1NCCCO` was tested, and the survivor count (T/C endpoint: mean survival time, dose: 400.0 mg/kg/injection, schedule: Q01DX009 (ip), vehicle: acetone) was 6 of 6.

With `COc1ccc(/C=C(\C(=O)O)c2cccc3ccccc23)cc1` the survivor count (T/C endpoint: mean survival time, dose: 400.0 mg/kg/injection, schedule: Q01DX009 (ip), vehicle: Klucel (hydroxypropylcellulose) (HPC)) was 2 of 6.

For `COC(OC)c1[nH]c(=O)[nH]c(=O)c1F.[Hg]`, the survivor count (T/C endpoint: mean survival time, dose: 12.0 mg/kg/injection, schedule: Q01DX009 (ip), vehicle: saline) was 1 of 6, the survivor count (T/C endpoint: mean survival time, dose: 25.0 mg/kg/injection, schedule: Q04DX003 (ip), vehicle: saline) was 2 of 6 and the survivor count (T/C endpoint: mean survival time, dose: 50.0 mg/kg/injection, schedule: Q04DX003 (ip), vehicle: saline) was 0 of 6.

With `Cc1cc(O)cc(=O)[nH]1` the survivor count [6] was 1 of 4.

`C/C(=N/N(C)C)c1ccc(Cl)cc1` was tested, and the survivor count (T/C endpoint: mean survival time, dose: 200.0 mg/kg/injection, schedule: Q04DX003 (ip), vehicle: saline) was 6 of 6 and the survivor count (T/C endpoint: mean survival time, dose: 400.0 mg/kg/injection, schedule: Q04DX003 (ip), vehicle: saline) was 6 of 6.

`COC(=O)CC(=O)C(Cl)C(=O)OC` (stereo not given) was tested, and the survivor count [7] was 0 of 3.

In the case of `Cc1ccc(S(=O)(=O)N(C)c2cc(Cl)c(I)cc2Cl)cc1`, the survivor count [8] is reported as 6 of 6.

In the case of `COC(=O)C1(C)CCC(c2ccc(OC)cc2)C(CC(=O)O)C1=O` (stereo not given), the survivor count [7] is reported as 6 of 6.

In the case of `Cc1ccc(S(=O)(=O)OCC2CO2)cc1` (stereo not given), the survivor count (T/C endpoint: mean survival time, dose: 200.0 mg/kg/injection, schedule: Q01DX009 (ip), vehicle: acetone) is reported as 6 of 6.

With `CCCCCCCCCCCC[N+](C)(C)Cc1ccccc1` the survivor count [9] was 4 of 6, the survivor count (T/C endpoint: mean survival time, dose: 12.5 mg/kg/injection, schedule: Q04DX003 (ip), vehicle: saline) was 3 of 6 and the survivor count (T/C endpoint: mean survival time, dose: 25.0 mg/kg/injection, schedule: Q01DX001 (ip), vehicle: saline) was 1 of 6. For the same compound, the survivor count (T/C endpoint: mean survival time, dose: 50.0 mg/kg/injection, schedule: Q01DX001 (ip), vehicle: saline) was 0 of 6, the survivor count [10] was 0 of 6 and the survivor count [11] was 0 of 6. The survivor count [6] was 0 of 6.

`Oc1ccc(C2(c3ccc(O)cc3)CCCCC2)cc1` was tested, and the survivor count [12] was 3 of 6.

For `CCOC(=O)/C(C#N)=C\c1cc(OC)ccc1OC`, the survivor count (T/C endpoint: mean survival time, dose: 200.0 mg/kg/injection, schedule: Q01DX009 (ip), vehicle: saline with Tween-80) was 6 of 6 and the survivor count [12] was 5 of 6.

For `O=C(Cl)c1ccc([N+](=O)[O-])cc1`, the survivor count [13] was 2 of 6.

In the case of `O=C1O/C(=C/c2ccccc2)C(O)=C1c1ccccc1`, the survivor count (T/C endpoint: mean survival time, dose: 400.0 mg/kg/injection, schedule: Q04DX002 (ip), vehicle: saline with Tween-80) is reported as 3 of 3.

In the case of `Cc1ccc(SCCN)cc1`, the survivor count [2] is reported as 0 of 6.

For `CCOC(=O)NC1=NCC(C)(C)S1`, the survivor count [5] was 2 of 6 and the survivor count [2] was 0 of 6.

In the case of `CCCCCCCCCCCCCCCCOS(=O)(=O)O`, the survivor count [2] is reported as 2 of 6.

For `CC(=O)NCc1ccc(N)cc1`, the survivor count (T/C endpoint: mean survival time, dose: 25.0 mg/kg/injection, schedule: Q01DX009 (ip), vehicle: water) was 0 of 6, the survivor count (T/C endpoint: mean survival time, dose: 50.0 mg/kg/injection, schedule: Q01DX009 (ip), vehicle: water) was 6 of 6 and the survivor count (T/C endpoint: mean survival time, dose: 100.0 mg/kg/injection, schedule: Q01DX009 (ip), vehicle: water) was 6 of 6. The survivor count (T/C endpoint: mean survival time, dose: 200.0 mg/kg/injection, schedule: Q01DX009 (ip), vehicle: water) was 6 of 6 and the survivor count (T/C endpoint: mean survival time, dose: 400.0 mg/kg/injection, schedule: Q01DX009 (ip), vehicle: water) was 6 of 6.

`COc1ccc(OC)c(/C=C/[N+](=O)[O-])c1` was tested, and the survivor count (T/C endpoint: mean survival time, dose: 200.0 mg/kg/injection, schedule: Q04DX003 (ip), vehicle: gum acacia) was 3 of 6 and the survivor count [1] was 1 of 6.

`CN(C)CC(C(=O)c1ccc(Br)cc1)C(Br)c1ccccc1` (stereo not given) was tested, and the survivor count [9] was 0 of 6, the survivor count (T/C endpoint: mean survival time, dose: 12.5 mg/kg/injection, schedule: Q01DX009 (ip), vehicle: saline) was 0 of 6 and the survivor count (T/C endpoint: mean survival time, dose: 25.0 mg/kg/injection, schedule: Q01DX009 (ip), vehicle: saline) was 0 of 6. The survivor count (T/C endpoint: mean survival time, dose: 50.0 mg/kg/injection, schedule: Q04DX003 (ip), vehicle: saline with Tween-80) was 3 of 6, the survivor count [14] was 5 of 6 and the survivor count [15] was 3 of 6. For the same compound, the survivor count [13] was 0 of 6.

`CN(C)/N=N/c1[nH]ncc1C(N)=O` was tested, and the T/C (T/C endpoint: mean survival time, dose: 65.0 mg/kg/injection, schedule: Q01DX009 (ip), vehicle: saline) was 142 % of control, the T/C (T/C endpoint: mean survival time, dose: 178.0 mg/kg/injection, schedule: Q01DX001 (ip), vehicle: saline) was 126 % of control [5 of 6 alive] and the T/C (T/C endpoint: mean survival time, dose: 180.0 mg/kg/injection, schedule: Q01DX009 (ip), vehicle: saline) was 134 % of control. The T/C [11] was 125 % of control, the T/C (T/C endpoint: mean survival time, dose: 267.0 mg/kg/injection, schedule: Q01DX001 (ip), vehicle: saline) was 142 % of control and the T/C [6] was 136 and 143 % of control. The T/C (T/C endpoint: median survival time, dose: 25.0 mg/kg/injection, schedule: Q01DX009 (ip), vehicle: saline) was 133 % of control, the T/C (T/C endpoint: median survival time, dose: 50.0 mg/kg/injection, schedule: Q01DX009 (ip), vehicle: saline) was 144 % of control and the T/C (T/C endpoint: median survival time, dose: 100.0 mg/kg/injection, schedule: Q01DX009 (ip), vehicle: saline) was 144 % of control. For the same compound, the T/C (T/C endpoint: median survival time, dose: 200.0 mg/kg/injection, schedule: Q01DX009 (ip), vehicle: saline) was 127 % of control.

`CCC#CC#CCC` was tested, and the survivor count [7] was 0 of 6 and the survivor count (T/C endpoint: mean survival time, dose: 300.0 mg/kg/injection, schedule: Q01DX009 (ip), vehicle: saline) was 0 of 6.

`CC1CN=C(c2ccc3ccccc3c2O)S1` (stereo not given) was tested, and the survivor count (T/C endpoint: mean survival time, dose: 400.0 mg/kg/injection, schedule: Q01DX005 (ip), vehicle: saline with Tween-80) was 3 of 3.

`C=CC1OC2OC(C)(C)OC2C1O` (stereo not given) was tested, and the survivor count (T/C endpoint: mean survival time, dose: 80.0 mg/kg/injection, schedule: Q01DX001 (ip), vehicle: saline) was 0 of 4, the survivor count [10] was 1 of 4 and the T/C (T/C endpoint: mean survival time, dose: 100.0 mg/kg/injection, schedule: Q01DX001 (ip), vehicle: steroid suspending solution) was 125 % of control. For the same compound, the survivor count [11] was 0 of 4 and the survivor count [6] was 0 of 4.

For `COC1=C(Br)C(=O)C(OC)=C(Br)C1=O`, the survivor count [14] was 3 of 6, the survivor count [15] was 0 of 6 and the survivor count [13] was 0 of 6.

With `OC(c1ccccc1)(c1ccccc1)C1c2ccccc2-c2[nH]c3ccccc3c21` (stereo not given) the survivor count (T/C endpoint: mean survival time, dose: 100.0 mg/kg/injection, schedule: Q01DX001 (ip), vehicle: saline with Tween-80) was 3 of 3 and the survivor count (T/C endpoint: mean survival time, dose: 400.0 mg/kg/injection, schedule: Q01DX001 (ip), vehicle: saline with Tween-80) was 3 of 3.

For `COc1cc([N+](=O)[O-])c(C(=O)O)c(C(=O)O)c1OC`, the survivor count (T/C endpoint: mean survival time, dose: 100.0 mg/kg/injection, schedule: Q04DX003 (ip), vehicle: Klucel (hydroxypropylcellulose) (HPC)) was 6 of 6, the survivor count [8] was 0 of 6 and the survivor count [3] was 0 of 6.

For `O=C(O)c1ccc([N+](=O)[O-])cc1C(=O)O`, the survivor count [4] was 0 of 6 and the survivor count [3] was 3 of 6.

`CN(C)C(=O)Sc1cccnc1` was tested, and the survivor count [4] was 3 of 6.

`CNC(=O)Oc1ccccc1C(C)C` was tested, and the survivor count (T/C endpoint: mean survival time, dose: 100.0 mg/kg/injection, schedule: Q04DX002 (ip), vehicle: Klucel (hydroxypropylcellulose) (HPC)) was 0 of 3 and the survivor count (T/C endpoint: mean survival time, dose: 200.0 mg/kg/injection, schedule: Q04DX002 (ip), vehicle: Klucel (hydroxypropylcellulose) (HPC)) was 0 of 3.
